Source: PubChem BioAssay AID1347423 (Functional Genomics Laboratory (NCATS/FGL), 2020)
In all, about 52,000 sequences went through this assay and about 210 (0.4%) were called active.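 Rule for the calls: active = gene whose silencing raises cell survival under the drug, median off-target-corrected z-score across its silencing RNAs 2 or more; inactive = the rest.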 The list shows a part of the results.

Experiment: Resistance to Poly (ADP-Ribose) Polymerase inhibitor: Gene Identification via Genome-wide siRNA Screen
Conditions: mouse BRCA2 R2336H ES cells, olaparib, CellTiter-Glo viability; active compounds read high
Summary of the method: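 Mouse BRCA2 R2336H ES cells were reverse-transfected with siRNA (20 nM final), treated at 48 h with 500 nM olaparib, and read by CellTiter-Glo after 72 h. Scores: MAD-based z per siRNA, median per gene, seed off-target correction.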

| Sequence | z-score |
| --- | --- |
| CGAUUUAUCUCAGACUUCATT against E430019B13Rik | inactive: -0.312 |
| GGUUUAAACUUUCAUGUGGTT against Dffb | inactive: -0.0825 |
| GGAGGCAGGAGCAAAACAUTT against Olfr1111 | inactive: 0.529 |
| GCCAAGAGACUCAAGUAGCTT against Nkg7 | inactive: 0.656 |
| GGAAAAAGAAACCAGUGUUTT against Relb | inactive: 0.993 |
| GGAUCUCGAGCUGACAGAATT against Gm1082 | inactive: -0.534 |
| GGCCUUAAAGAAACACAAGTT against Hnrph2 | inactive: 0.687 |
| CGAAGUGGUUAACCACCUCTT against 1700026L06Rik | inactive: 0.787 |
| GCUCAAGUCUACGAGAGUUTT against D19Ertd678e | inactive: -1.28 |
| CCUGCACAACUGGAAACCUTT against Pvrl2 | inactive: 0.639 |
| UAUUCAACCUCGGUCUCAGTT against Olfr473 | inactive: 1.24 |
| CCAGGAAAGAUAUUUGAUGTT against H2-Tw3 | inactive: -0.265 |
| GGAAGCUGGCCAUAGAGAATT against Sall4 | inactive: 0.26 |
| GCAUUAACAAAUAUCGUGUTT against Sin3a | inactive: -0.738 |
| GGUUCUUCAAACUAGACCGTT against Mov10 | inactive: -0.0502 |
| GCGACUAAUCCUUUGCUACTT against Cdc42bpb | inactive: 0.594 |
| GGUUAUGAGGAACAAUUAGTT against 2310015I08Rik | inactive: -0.123 |
| GCUAACAACGUGUGCUUCUTT against BC029169 | inactive: 1.09 |
| GGUCAAGUCAGUAACUGCATT against Olfr10 | inactive: -0.628 |
| GCGGUUACAAAUAUGUGGGTT against Yif1 | inactive: 0.365 |
| GCUGGAACUUAGUGUUCAGTT against Myst4 | inactive: -1.58 |
| GGGAAAAGAGCUUGUCCGATT against 4921501E09Rik | inactive: 0.552 |
| GGGCAAGUUCCAUCUCCUUTT against Cdc42ep2 | inactive: -1.67 |
| CCUAUUAUGUCAACAUUGATT against Il6st | inactive: 1.43 |
| GGAAAAAAAAAAGGACGAGTT against Smap1 | inactive: -0.611 |
| GGUUGGCUGGAAUUUGACATT against Bmp6 | inactive: 1.23 |
| GGUUACUAAGUGAAGUAAATT against Actr1b | inactive: -0.0287 |
| CGUGCAUGCAAAUUAUGUATT against 4933417O08Rik | inactive: -0.372 |
| CCAUGUCCAAUGAGGACUUTT against Htr1b | active: 1.74 |

7 entries from above, with tabs.
Sequence	z-score
CGAUUUAUCUCAGACUUCATT against E430019B13Rik	inactive: -0.312
GGUUUAAACUUUCAUGUGGTT against Dffb	inactive: -0.0825
CGAAGUGGUUAACCACCUCTT against 1700026L06Rik	inactive: 0.787
GGUUAUGAGGAACAAUUAGTT against 2310015I08Rik	inactive: -0.123
GCUAACAACGUGUGCUUCUTT against BC029169	inactive: 1.09
GGGCAAGUUCCAUCUCCUUTT against Cdc42ep2	inactive: -1.67
GGUUACUAAGUGAAGUAAATT against Actr1b	inactive: -0.0287
